Reference: paper PMC2734569, “Functional mapping of the fission yeast DNA polymerase δ B-subunit Cdc1 by site-directed and random pentapeptide insertion mutagenesis” (BMC Molecular Biology, 2009)
Results are given in words; binding and its absence hold for the method and conditions named. Sequences can lack the tags named with a protein.

Biological target: T1, Cdc1-A2 (Schizosaccharomyces pombe, UniProt P87324 1-462, Gly293Ala)
T1 construct: Cdc1, S. pombe, point mutant; source: yeast two-hybrid fusion, in S. cerevisiae CTY10-5d
T1 sequence (looked up): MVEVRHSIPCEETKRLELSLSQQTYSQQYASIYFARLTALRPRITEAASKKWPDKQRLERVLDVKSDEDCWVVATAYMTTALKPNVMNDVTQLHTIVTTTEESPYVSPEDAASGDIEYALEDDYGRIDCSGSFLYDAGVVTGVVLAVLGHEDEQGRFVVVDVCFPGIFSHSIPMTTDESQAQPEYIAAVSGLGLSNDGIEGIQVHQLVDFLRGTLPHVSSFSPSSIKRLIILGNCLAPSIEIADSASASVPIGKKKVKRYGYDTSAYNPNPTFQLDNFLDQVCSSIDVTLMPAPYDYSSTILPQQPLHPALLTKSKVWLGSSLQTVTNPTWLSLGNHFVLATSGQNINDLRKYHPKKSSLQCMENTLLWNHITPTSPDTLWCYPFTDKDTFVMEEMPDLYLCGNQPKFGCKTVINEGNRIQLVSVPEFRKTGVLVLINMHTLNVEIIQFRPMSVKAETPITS
Assay: two-hybrid; LexA-Cdc1 bait (pBTM116 or pBTM116BN) with Gal4-Pol3 prey and co-expressed c-myc-tagged Cdc27 (pAA-Cdc27) in S. cerevisiae CTY10-5d; ONPG liquid culture beta-galactosidase assay, mean of triplicates, as percent of wild-type Cdc1

B1: Pol3 (fission yeast DNA polymerase delta catalytic subunit) (natural protein, Schizosaccharomyces pombe, UniProt P30316 1-1086, looked up)
chain: MTDRSSNEGVVLNKENYPFPRRNGSIHGEITDVKRRRLSERNGYGDKKGSSSKEKTSSFEDELAEYASQLDQDEIKSSKDQQWQRPALPAINPEKDDIYFQQIDSEEFTEGSVPSIRLFGVTDNGNSILVHVVGFLPYFYVKAPVGFRPEMLERFTQDLDATCNGGVIDHCIIEMKENLYGFQGNEKSPFIKIFTTNPRILSRARNVFERGEFNFEELFPVGVGVTTFESNTQYLLRFMIDCDVVGMNWIHLPASKYQFRYQNRVSNCQIEAWINYKDLISLPAEGQWSKMAPLRIMSFDIECAGRKGVFPDPSIDPVIQIASIVTQYGDSTPFVRNVFCVDTCSQIVGTQVYEFQNQAEMLSSWSKFVRDVDPDVLIGYNICNFDIPYLLDRAKSLRIHNFPLLGRIHNFFSVAKETTFSSKAYGTRESKTTSIPGRLQLDMLQVMQRDFKLRSYSLNAVCSQFLGEQKEDVHYSIITDLQNGTADSRRRLAIYCLKDAYLPQRLMDKLMCFVNYTEMARVTGVPFNFLLARGQQIKVISQLFRKALQHDLVVPNIRVNGTDEQYEGATVIEPIKGYYDTPIATLDFSSLYPSIMQAHNLCYTTLLDSNTAELLKLKQDVDYSVTPNGDYFVKPHVRKGLLPIILADLLNARKKAKADLKKETDPFKKAVLDGRQLALKVSANSVYGFTGATNGRLPCLAISSSVTSYGRQMIEKTKDVVEKRYRIENGYSHDAVVIYGDTDSVMVKFGVKTLPEAMKLGEEAANYVSDQFPNPIKLEFEKVYFPYLLISKKRYAGLFWTRTDTYDKMDSKGIETVRRDNCPLVSYVIDTALRKMLIDQDVEGAQLFTKKVISDLLQNKIDMSQLVITKALSKTDYAAKMAHVELAERMRKRDAGSAPAIGDRVAYVIIKGAQGDQFYMRSEDPIYVLENNIPIDAKYYLENQLSKPLLRIFEPILGEKASSLLHGDHTRTISMAAPSVGGIMKFAVKVETCLGCKAPIKKGKTALCENCLNRSAELYQRQVAQVNDLEVRFARLWTQCQRCQGSMHQDVICTSRDCPIFYMRIAEHKKLQQSVDLLKRFDEMSW
notes: DNA polymerase delta catalytic subunit Pol3, S. pombe; prey plasmid named pACT-Pol3 in the results and pGAD2F-Pol3 in the methods; also called Gal4-Pol3; pACT-Pol3; source: yeast two-hybrid fusion, in S. cerevisiae CTY10-5d
  binding: no binding (tested: <1% of wild type (Table 1))
